{"source": "PubChem BioAssay AID1259254 (NCATS, 2017)", "aim": "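Finding genes that stop cells copying their DNA twice in one cycle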 (primary screen)", "system": "human HCT116 colorectal cancer cells", "reagents": "single siRNA against human genes", "timing": "3 days", "read-out": "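Nuclei stained with Hoechst and imaged; cell-cycle phase assigned by DNA content; G2 share scaled per plate, non-targeting siRNA 0%, GMNN siRNA 100%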", "scale": "G2 robust z-score and G2 cells, % of GMNN control: higher = more G2 cells, more excess DNA replication", "active means": "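Active siRNAs have a G2 robust z of 5 or more median absolute deviations over the median, which in these data means about 38% or higher of GMNN control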", "note": "The deposit covers about 59,000 reagents; this is a part drawn at random. About 1,550 of all reagents (2.6%) were called active. 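G2 share is only a proxy for re-replication; each gene was hit by three separate siRNAs, and active genes were retested.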 Reagents against one gene are numbered here. Further read-outs or replicates are left out here. Not stated in the record: the amount of reagent."}
{"Target gene": "ADAM32", "reagent": 1, "G2 robust z-score": 3.21, "G2 cells, % of GMNN control": 25.5, "call": "inactive"}
{"Target gene": "ADAM32", "reagent": 2, "G2 robust z-score": 5.1, "G2 cells, % of GMNN control": 38.8, "call": "active"}
{"Target gene": "ADAM32", "reagent": 3, "G2 robust z-score": -0.481, "G2 cells, % of GMNN control": -0.42, "call": "inactive"}
{"Target gene": "TMSB15B", "reagent": 1, "G2 robust z-score": 0.646, "G2 cells, % of GMNN control": 7.51, "call": "inactive"}
{"Target gene": "TMSB15B", "reagent": 2, "G2 robust z-score": 0.967, "G2 cells, % of GMNN control": 9.77, "call": "inactive"}
{"Target gene": "TMSB15B", "reagent": 3, "G2 robust z-score": 0.341, "G2 cells, % of GMNN control": 5.37, "call": "inactive"}
{"Target gene": "CC2D1A", "reagent": 1, "G2 robust z-score": -0.572, "G2 cells, % of GMNN control": -1.06, "call": "inactive"}
{"Target gene": "CC2D1A", "reagent": 2, "G2 robust z-score": 0.604, "G2 cells, % of GMNN control": 7.22, "call": "inactive"}
{"Target gene": "CC2D1A", "reagent": 3, "G2 robust z-score": -0.641, "G2 cells, % of GMNN control": -1.55, "call": "inactive"}
{"Target gene": "PRSS53", "reagent": 1, "G2 robust z-score": -0.0424, "G2 cells, % of GMNN control": 2.67, "call": "inactive"}
{"Target gene": "PRSS53", "reagent": 2, "G2 robust z-score": -0.784, "G2 cells, % of GMNN control": -2.55, "call": "inactive"}
{"Target gene": "PRSS53", "reagent": 3, "G2 robust z-score": -1.27, "G2 cells, % of GMNN control": -5.96, "call": "inactive"}

2 entries from above, set out differently.
ADAM32 #2: G2 robust z-score = 5.1; G2 cells, % of GMNN control = 38.8; call = active
ADAM32 #3: G2 robust z-score = -0.481; G2 cells, % of GMNN control = -0.42; call = inactive

Additional reagents follow.
{"Target gene": "FAM13A", "reagent": 1, "G2 robust z-score": -1.44, "G2 cells, % of GMNN control": -7.13, "call": "inactive"}
{"Target gene": "FAM13A", "reagent": 2, "G2 robust z-score": 1.08, "G2 cells, % of GMNN control": 10.6, "call": "inactive"}
{"Target gene": "FAM13A", "reagent": 3, "G2 robust z-score": 0.412, "G2 cells, % of GMNN control": 5.87, "call": "inactive"}
{"Target gene": "CYP21A2", "reagent": 1, "G2 robust z-score": -0.00434, "G2 cells, % of GMNN control": 2.94, "call": "inactive"}
{"Target gene": "CYP21A2", "reagent": 2, "G2 robust z-score": 0.943, "G2 cells, % of GMNN control": 9.6, "call": "inactive"}
{"Target gene": "CYP21A2", "reagent": 3, "G2 robust z-score": -0.211, "G2 cells, % of GMNN control": 1.48, "call": "inactive"}
{"Target gene": "CLDN1", "reagent": 1, "G2 robust z-score": -0.141, "G2 cells, % of GMNN control": 1.97, "call": "inactive"}
{"Target gene": "CLDN1", "reagent": 2, "G2 robust z-score": 1.05, "G2 cells, % of GMNN control": 10.4, "call": "inactive"}
{"Target gene": "CLDN1", "reagent": 3, "G2 robust z-score": -0.497, "G2 cells, % of GMNN control": -0.533, "call": "inactive"}
{"Target gene": "GJD3", "reagent": 1, "G2 robust z-score": -0.101, "G2 cells, % of GMNN control": 2.26, "call": "inactive"}
{"Target gene": "GJD3", "reagent": 2, "G2 robust z-score": -0.369, "G2 cells, % of GMNN control": 0.374, "call": "inactive"}
{"Target gene": "GJD3", "reagent": 3, "G2 robust z-score": 0.0946, "G2 cells, % of GMNN control": 3.63, "call": "inactive"}
